For one assay, the target named is Flag-Alix (UniProt Q8WUM4). The experiment in a line: co-IP; 293T cells co-transfected with HA-CHMP4B and Flag-tagged Alix forms; lysates incubated with anti-Flag antibody-conjugated beads; western blot.
The next assay has as its target Strep-TSG101 (UniProt Q99816). The experiment in a line: co-IP.
The next assay addresses T1, Flag-Alix, Q8WUM4.
T1 chain: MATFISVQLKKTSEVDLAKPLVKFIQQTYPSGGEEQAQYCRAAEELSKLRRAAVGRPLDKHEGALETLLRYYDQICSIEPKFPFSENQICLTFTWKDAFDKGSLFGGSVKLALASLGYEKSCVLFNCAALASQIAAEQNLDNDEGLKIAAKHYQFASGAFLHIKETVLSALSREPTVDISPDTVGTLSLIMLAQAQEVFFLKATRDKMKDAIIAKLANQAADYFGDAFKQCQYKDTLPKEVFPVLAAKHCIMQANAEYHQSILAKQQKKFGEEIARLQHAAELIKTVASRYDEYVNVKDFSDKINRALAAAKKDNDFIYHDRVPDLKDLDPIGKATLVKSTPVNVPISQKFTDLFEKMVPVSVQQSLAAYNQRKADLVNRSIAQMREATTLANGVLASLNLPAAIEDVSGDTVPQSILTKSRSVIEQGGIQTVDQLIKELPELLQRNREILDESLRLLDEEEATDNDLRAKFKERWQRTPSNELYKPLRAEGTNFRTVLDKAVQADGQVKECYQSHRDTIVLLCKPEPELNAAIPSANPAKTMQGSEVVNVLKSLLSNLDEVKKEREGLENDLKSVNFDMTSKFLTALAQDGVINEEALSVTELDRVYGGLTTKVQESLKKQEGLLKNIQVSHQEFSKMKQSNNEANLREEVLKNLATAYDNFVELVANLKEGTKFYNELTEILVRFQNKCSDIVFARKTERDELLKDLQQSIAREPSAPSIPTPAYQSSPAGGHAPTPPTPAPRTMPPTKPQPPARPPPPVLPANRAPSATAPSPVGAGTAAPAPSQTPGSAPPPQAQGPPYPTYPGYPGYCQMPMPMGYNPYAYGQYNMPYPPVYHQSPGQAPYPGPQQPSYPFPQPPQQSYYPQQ
The experiment in a line: co-IP; 293T cells co-transfected with HA-tagged Alix, DUb-Alix or DUb*-Alix and Flag-Alix or Flag-tagged Alix fragments; HA-tagged proteins immunoprecipitated on HA-antibody conjugated beads; western blot. Particulars: remark: other sources report otherwise. (In western blotting, separated proteins are transferred to a membrane and probed.)

No constants are given. Whether binding was seen depends on the method and setting. Binding seen in cells or lysates may run through a third protein. Some binding calls cover weakened binding; strength is not graded here. Tags and fused reporters may be left off the sequences shown.

B1: HA-CHMP4B (protein, UniProt Q9H444 1-224)
chain: MSVFGKLFGAGGGKAGKGGPTPQEAIQRLRDTEEMLSKKQEFLEKKIEQELTAAKKHGTKNKRAALQALKRKKRYEKQLAQIDGTLSTIEFQREALENANTNTEVLKNMGYAAKAMKAAHDNMDIDKVDELMQDIADQQELAEEISTAISKPVGFGEEFDEDELMAELEELEQEELDKNLLEISGPETVPLPNVPSIALPSKPAKKKEEEDDDMKELENWAGSM
For B1, the binding result in the assay with Flag-Alix is “binds”.

B2: Flag-tagged MVB12B (protein, UniProt Q9H7P6 1-319)
chain: MRSCFCVRRSRDPPPPQPPPPPPQRGTDQSTMPEVKDLSEALPETSMDPITGVGVVASRNRAPTGYDVVAQTADGVDADLWKDGLFKSKVTRYLCFTRSFSKENSHLGNVLVDMKLIDIKDTLPVGFIPIQETVDTQEVAFRKKRLCIKFIPRDSTEAAICDIRIMGRTKQAPPQYTFIGELNSMGIWYRMGRVPRNHDSSQPTTPSQSSAASTPAPNLPRHISLTLPATFRGRNSTRTDYEYQHSNLYAISAMDGVPFMISEKFSCVPESMQPFDLLGITIKSLAEIEKEYEYSFRTEQSAAARLPPSPTRCQQIPQS
On to B2, for which, in the assay with Strep-TSG101, the binding result is “binds”.

B3: Flag-Alix, Q8WUM4 1-868 (protein)
chain: T1 chain
B3: the binding result with Flag-Alix, Q8WUM4 is on record as “binds”.

The values above are taken from article PMC3751857.
